Data source: PubChem BioAssay AID504808 (Drosophila RNAi Screening Center, 2011)
Assay: 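Fly genes required to hold E2F transcription in check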 (primary screen). Cells: Drosophila S2 cells. Knock-down reagent: long dsRNA against Drosophila genes. Detection: 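Dual luciferase plate measurements; E2F-specific signal taken as firefly over Renilla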. Reading the numbers: E2F firefly: higher = more E2F reporter activity; Renilla normaliser: higher = more normaliser reporter signal. Rule for the call: 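a knock-down counted as active when the firefly/Renilla E2F signal rose above 50%, a threshold chosen arbitrarily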.
The screen tested about 21,000 reagents; shown is an unselected part of those that have a named target and a result. Of all reagents, 18 (0.084%) got an active call. 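Raw counts without plate normalisation, one of two replicates; the ratio scores behind the calls were not deposited.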 A number with no mark means an inactive call. Reagent sequences are not shown. The record does not give: the amount of reagent, the time to read-out.

robo3 (roundabout 3) [SID104180166] | E2F firefly, rep 1 = 1.60e5; Renilla normaliser, rep 1 = 5627
robo3 (roundabout 3) [SID104180167] | E2F firefly, rep 1 = 1.58e5; Renilla normaliser, rep 1 = 5255
robo3 (roundabout 3) [SID104180476] | E2F firefly, rep 1 = 1.49e5; Renilla normaliser, rep 1 = 4945
mino (minotaur) [SID104193924] | E2F firefly, rep 1 = 1923; Renilla normaliser, rep 1 = 836
CG9876 [SID104184378] | E2F firefly, rep 1 = 93947; Renilla normaliser, rep 1 = 3842
E(spl)m5-HLH (Enhancer of split m5, helix-loop-helix) [SID104196487] | E2F firefly, rep 1 = 1.15e5; Renilla normaliser, rep 1 = 6330
TTLL1B (Tubulin tyrosine ligase-like 1B) [SID104188386] | E2F firefly, rep 1 = 85386; Renilla normaliser, rep 1 = 3575
RpS11 (Ribosomal protein S11) [SID104187081] | E2F firefly, rep 1 = 68737; Renilla normaliser, rep 1 = 4651
HP1b (Heterochromatin Protein 1b) [SID104198210] | E2F firefly, rep 1 = 89865; Renilla normaliser, rep 1 = 7179
L (Lobe) [SID104186458] | E2F firefly, rep 1 = 1.03e5; Renilla normaliser, rep 1 = 4583
L (Lobe) [SID104186460] | E2F firefly, rep 1 = 1.01e5; Renilla normaliser, rep 1 = 4019
CG14402 [SID104182178] | E2F firefly, rep 1 = 96734; Renilla normaliser, rep 1 = 3940
CG8475 [SID104182883] | E2F firefly, rep 1 = 86325; Renilla normaliser, rep 1 = 3539
Vha68-1 (Vacuolar H[+] ATPase 68kD subunit 1) [SID104183262] | E2F firefly, rep 1 = 95372; Renilla normaliser, rep 1 = 3861
CG40191 [SID104200833] | E2F firefly, rep 1 = 66725; Renilla normaliser, rep 1 = 4957
CG12347 [SID104194294] | E2F firefly, rep 1 = 1.33e5; Renilla normaliser, rep 1 = 8128
CG32032 [SID104188753] | E2F firefly, rep 1 = 1.26e5; Renilla normaliser, rep 1 = 4768
CG11786 [SID104194181] | E2F firefly, rep 1 = 1.36e5; Renilla normaliser, rep 1 = 7193
CG6933 [SID104190543] | E2F firefly, rep 1 = 68994; Renilla normaliser, rep 1 = 3272

Reprinted from above for reference:
L (Lobe) [SID104186460] | E2F firefly, rep 1 = 1.01e5; Renilla normaliser, rep 1 = 4019
CG14402 [SID104182178] | E2F firefly, rep 1 = 96734; Renilla normaliser, rep 1 = 3940
